In patent publication US12616761B2, “CXCR4-targeting compounds” (PROVINCIAL HEALTH SERVICES AUTHORITY, priority 2020, dated 2026):
For at least one compound, name, drawing or mass did not settle the structure. Positions of bridges follow the written chain, without caps; N, C: chain ends. Non-standard residues stand in square brackets, D forms with d. Residues, ends and D or L forms follow the SMILES beside them. Groups on a side chain read outwards from the residue. *: point of attachment. DOTA = O=C(O)CN1CCN(CC(=O)O)CCN(CC(=O)*)CCN(CC(=O)O)CC1; X2 = C[N+](C)(Cc1cn(CC(=O)*)nn1)C[B-](F)(F)F; 2Nal = N[C@@H](Cc1ccc2ccccc2c1)C(=O)O; X1 = C[N+](C)(CCCC(=O)*)C[B-](F)(F)F; Lys(iPr) = CC(C)NCCCC[C@H](N)C(=O)O; Cya = N[C@@H](CS(=O)(=O)O)C(=O)O

Sequences of proteins named here, by UniProt entry; tags and fusion partners are left off.
UniProt P61073, whole entry: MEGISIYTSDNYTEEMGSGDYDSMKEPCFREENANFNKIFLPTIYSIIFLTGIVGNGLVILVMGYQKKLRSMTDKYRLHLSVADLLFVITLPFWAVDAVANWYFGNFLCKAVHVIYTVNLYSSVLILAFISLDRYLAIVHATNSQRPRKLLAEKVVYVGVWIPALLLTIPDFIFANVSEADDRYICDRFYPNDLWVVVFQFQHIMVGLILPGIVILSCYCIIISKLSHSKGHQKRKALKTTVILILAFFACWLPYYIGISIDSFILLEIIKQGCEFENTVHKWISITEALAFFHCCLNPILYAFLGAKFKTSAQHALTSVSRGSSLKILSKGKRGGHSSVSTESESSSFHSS

Biological target: T1, CXCR4 (Homo sapiens, UniProt P61073)
T1 construct: expressed in transfected cells; host or cells: CHO:CXCR4 cells (gift from Drs. David McDermott and Xiaoyuan Chen, NIH)
Test: Competitive binding assay: [125I]SDF-1α displacement on CHO:CXCR4 cells
Settings: [125I]SDF-1α competition on CHO:CXCR4 cells; given as ranges; read-out: IC50 (nM), Binding Affinity to CXCR4
Method: The Z138 mantle cell lymphoma cell line was given by Dr. Christian Steidl (BC Cancer) as a gift. The CHO:CXCR4 cell line was given by Drs. David McDermott and Xiaoyuan Chen (National Institutes of Health) as a gift. The cell line was cultured in a 5% CO2 atmosphere at 37° C. in a humidified incubator. The Z138 cells were incubated with IMDM medium (Life Technologies Corporations) and the CHO:CXCR4 cells were incubated with F12K medium (Life Technologies Corporations), both of which were supplemented with 10% fetal bovine serum (Sigma-Aldrich), 100 I.U./mL penicillin, and 100 μg/mL streptomycin (Penicillin-Streptomycin Solution).
CHO:CXCR4 cells were seeded at a density of 1×10^5 cells/well in 24-well poly-D-lysine coated plates (Corning BioCoat) and incubated with [^1251]SDF-1α (0.01 nM, PerkinElmer) and competing nonradioactive ligands ([…]). The cells, radioligand, and competing peptides were incubated for 1 h at 27° C. with moderate shaking. Following the incubation period, the supernatant was aspirated, followed by three washes with 1 mL of ice-cold PBS. Cells were harvested with 200 μL of trypsin and counted on a y counter. Data were plotted in GraphPad Prism 7 to determine IC50 values (GraphPad Software, Inc., La Jolla, CA). The values are reported as mean±standard deviation.

Row | Structure (SMILES) | IC50
1 | CC(C)NCCCC[C@H](NC(=O)[C@H]1CCC(=O)N[C@@H](CCCCNC(=O)[C@H](CS(=O)(=O)O)NC(=O)Cn2cc(C[N+](C)(C)C[B-](F)(F)F)nn2)C(=O)N[C@@H](Cc2ccc(O)cc2)C(=O)N[C@@H](CCCCNC(C)C)C(=O)N[C@H](CCCNC(=N)N)C(=O)N[C@@H](Cc2ccc3ccccc3c2)C(=O)N[C@H](C)C(=O)N1)C(N)=O [AMBF3-BL41, cyclo[Lys(CysAcid-triazole-N,N-dimethyl-ammoniomethyl-trifluoroborate)-Tyr-Lys(iPr)-D-Arg-2Nal-D-Ala-D-Glu]-Lys(iPr)] (K([Cya-X2])Y[Lys(iPr)][dR][2Nal][dA][dE][Lys(iPr)]-NH2; lactam N-7) | 10 to 50 nM
2 | CC(C)NCCCC[C@H](NC(=O)[C@H]1CCC(=O)N[C@@H](CCCCNC(=O)[C@H](CS(=O)(=O)O)NC(=O)CN2CCN(CC(=O)O)CCN(CC(=O)O)CCN(CC(=O)O)CC2)C(=O)N[C@@H](Cc2ccc(O)cc2)C(=O)N[C@@H](CCCCNC(C)C)C(=O)N[C@H](CCCNC(=N)N)C(=O)N[C@@H](Cc2ccc3ccccc3c2)C(=O)N[C@H](C)C(=O)N1)C(N)=O [Ga-BL34, cyclo[Lys(CysAcid-DOTA-Ga)-Tyr-Lys(iPr)-D-Arg-2Nal-D-Ala-D-Glu]-Lys(iPr)] (K([Cya-DOTA])Y[Lys(iPr)][dR][2Nal][dA][dE][Lys(iPr)]-NH2; lactam N-7 (inferred)) | 1 to 10 nM
3 | CC(C)NCCCC[C@H](NC(=O)[C@H]1CCC(=O)N[C@@H](CCCCNC(=O)[C@H](CS(=O)(=O)O)NC(=O)CCC[N+](C)(C)C[B-](F)(F)F)C(=O)N[C@@H](Cc2ccc(O)cc2)C(=O)N[C@@H](CCCCNC(C)C)C(=O)N[C@H](CCCNC(=N)N)C(=O)N[C@@H](Cc2ccc3ccccc3c2)C(=O)N[C@H](C)C(=O)N1)C(N)=O [PepBF3-BL40, cyclo[Lys(CysAcid-amido-N,N-dimethyl-ammoniomethyl-trifluoroborate)-Tyr-Lys(iPr)-D-Arg-2Nal-D-Ala-D-Glu]-Lys(iPr)] (K([Cya-X1])Y[Lys(iPr)][dR][2Nal][dA][dE][Lys(iPr)]-NH2; lactam N-7) | 10 to 50 nM
